No constants are given. Whether binding was seen depends on the method and setting. Binding seen in cells or lysates may run through a third protein. Binding calls can cover weak binding; strength is not graded here.
Tests used:
[1] = target: T1, Ubiquitin-specific protease 53 (USP53) (mouse (endogenous in mouse brain)) (UniProt P15975); experiment: co-IP; synaptosomes (P2) from whole mouse brain in Syn-PER reagent and co-IP buffer (150 mM NaCl, 10 mM Tris-HCl pH 7.4, 1 mM EDTA, 1 mM EGTA, Triton X-100 1%, NP-40 0.5%), on ice and at 4 °C; 2.88 µg primary antibody, Protein A magnetic beads; Western blot
T1 sequence: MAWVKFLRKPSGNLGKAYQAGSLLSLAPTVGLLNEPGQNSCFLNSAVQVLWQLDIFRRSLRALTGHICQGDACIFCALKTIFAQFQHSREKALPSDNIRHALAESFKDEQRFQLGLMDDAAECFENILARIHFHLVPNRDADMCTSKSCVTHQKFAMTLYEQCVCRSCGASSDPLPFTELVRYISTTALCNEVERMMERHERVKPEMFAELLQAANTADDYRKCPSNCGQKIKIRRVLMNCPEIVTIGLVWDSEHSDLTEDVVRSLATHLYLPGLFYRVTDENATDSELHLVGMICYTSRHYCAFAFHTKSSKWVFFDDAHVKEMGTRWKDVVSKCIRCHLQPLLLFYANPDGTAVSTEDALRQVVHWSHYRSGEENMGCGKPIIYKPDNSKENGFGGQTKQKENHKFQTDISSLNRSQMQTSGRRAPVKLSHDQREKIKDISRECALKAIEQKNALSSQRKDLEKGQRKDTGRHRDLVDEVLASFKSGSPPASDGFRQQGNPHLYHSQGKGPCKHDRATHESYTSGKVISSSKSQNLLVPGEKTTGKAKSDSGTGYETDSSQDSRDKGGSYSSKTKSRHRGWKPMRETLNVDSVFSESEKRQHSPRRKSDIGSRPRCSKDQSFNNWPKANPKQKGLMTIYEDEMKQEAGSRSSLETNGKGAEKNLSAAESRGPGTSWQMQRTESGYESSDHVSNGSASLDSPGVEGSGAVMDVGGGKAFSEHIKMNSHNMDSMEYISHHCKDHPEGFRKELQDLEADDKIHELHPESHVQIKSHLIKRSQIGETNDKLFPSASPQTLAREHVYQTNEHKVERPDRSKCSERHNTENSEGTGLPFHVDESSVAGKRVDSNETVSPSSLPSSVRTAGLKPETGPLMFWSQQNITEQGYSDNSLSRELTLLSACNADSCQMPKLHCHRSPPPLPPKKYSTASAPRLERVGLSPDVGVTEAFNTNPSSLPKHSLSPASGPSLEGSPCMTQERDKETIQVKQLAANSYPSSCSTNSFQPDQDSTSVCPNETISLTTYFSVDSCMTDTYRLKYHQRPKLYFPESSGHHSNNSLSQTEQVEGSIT

[2] = target: Glutamate receptor interacting protein 2 (GRIP2) (mouse (endogenous in mouse brain)); experiment: as above

Molecule	binding [1]	binding [2]
Glutamate receptor interacting protein 2 (GRIP2) (mouse (endogenous in mouse brain))	binds	
Ubiquitin-specific protease 53 (USP53) (protein, UniProt P15975 1-1069) MAWVKFLRKPSGNLGKAYQAGSLLSLAPTVGLLNEPGQNSCFLNSAVQVLWQLDIFRRSLRALTGHICQGDACIFCALKTIFAQFQHSREKALPSDNIRHALAESFKDEQRFQLGLMDDAAECFENILARIHFHLVPNRDADMCTSKSCVTHQKFAMTLYEQCVCRSCGASSDPLPFTELVRYISTTALCNEVERMMERHERVKPEMFAELLQAANTADDYRKCPSNCGQKIKIRRVLMNCPEIVTIGLVWDSEHSDLTEDVVRSLATHLYLPGLFYRVTDENATDSELHLVGMICYTSRHYCAFAFHTKSSKWVFFDDAHVKEMGTRWKDVVSKCIRCHLQPLLLFYANPDGTAVSTEDALRQVVHWSHYRSGEENMGCGKPIIYKPDNSKENGFGGQTKQKENHKFQTDISSLNRSQMQTSGRRAPVKLSHDQREKIKDISRECALKAIEQKNALSSQRKDLEKGQRKDTGRHRDLVDEVLASFKSGSPPASDGFRQQGNPHLYHSQGKGPCKHDRATHESYTSGKVISSSKSQNLLVPGEKTTGKAKSDSGTGYETDSSQDSRDKGGSYSSKTKSRHRGWKPMRETLNVDSVFSESEKRQHSPRRKSDIGSRPRCSKDQSFNNWPKANPKQKGLMTIYEDEMKQEAGSRSSLETNGKGAEKNLSAAESRGPGTSWQMQRTESGYESSDHVSNGSASLDSPGVEGSGAVMDVGGGKAFSEHIKMNSHNMDSMEYISHHCKDHPEGFRKELQDLEADDKIHELHPESHVQIKSHLIKRSQIGETNDKLFPSASPQTLAREHVYQTNEHKVERPDRSKCSERHNTENSEGTGLPFHVDESSVAGKRVDSNETVSPSSLPSSVRTAGLKPETGPLMFWSQQNITEQGYSDNSLSRELTLLSACNADSCQMPKLHCHRSPPPLPPKKYSTASAPRLERVGLSPDVGVTEAFNTNPSSLPKHSLSPASGPSLEGSPCMTQERDKETIQVKQLAANSYPSSCSTNSFQPDQDSTSVCPNETISLTTYFSVDSCMTDTYRLKYHQRPKLYFPESSGHHSNNSLSQTEQVEGSIT		binds

From article PMC10606770
